Test results published in paper PMC9324012.
Results are given in words; binding and its absence hold for the method and conditions named. Binding seen in cells or lysates may run through a third protein. A yes stands for co-enrichment or nearness to the bait. Other partners may have been found. Where a sequence is shown, tags or fusion partners need not be part of it.

Sequences of proteins named here, by UniProt entry; tags and fusion partners are left off. A change or cut given only in a name is not applied to a line headed by its entry.
UniProt Q09028: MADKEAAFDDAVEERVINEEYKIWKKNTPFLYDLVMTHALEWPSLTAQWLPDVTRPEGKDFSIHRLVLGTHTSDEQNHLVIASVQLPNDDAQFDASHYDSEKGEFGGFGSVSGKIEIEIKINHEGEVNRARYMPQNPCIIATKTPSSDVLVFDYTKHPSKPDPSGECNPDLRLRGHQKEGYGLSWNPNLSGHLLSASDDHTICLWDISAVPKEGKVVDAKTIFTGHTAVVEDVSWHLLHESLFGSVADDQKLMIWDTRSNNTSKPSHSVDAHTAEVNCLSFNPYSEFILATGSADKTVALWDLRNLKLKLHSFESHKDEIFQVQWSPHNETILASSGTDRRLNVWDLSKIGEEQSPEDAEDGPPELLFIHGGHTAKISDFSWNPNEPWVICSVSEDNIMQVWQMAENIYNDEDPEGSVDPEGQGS
UniProt O14744: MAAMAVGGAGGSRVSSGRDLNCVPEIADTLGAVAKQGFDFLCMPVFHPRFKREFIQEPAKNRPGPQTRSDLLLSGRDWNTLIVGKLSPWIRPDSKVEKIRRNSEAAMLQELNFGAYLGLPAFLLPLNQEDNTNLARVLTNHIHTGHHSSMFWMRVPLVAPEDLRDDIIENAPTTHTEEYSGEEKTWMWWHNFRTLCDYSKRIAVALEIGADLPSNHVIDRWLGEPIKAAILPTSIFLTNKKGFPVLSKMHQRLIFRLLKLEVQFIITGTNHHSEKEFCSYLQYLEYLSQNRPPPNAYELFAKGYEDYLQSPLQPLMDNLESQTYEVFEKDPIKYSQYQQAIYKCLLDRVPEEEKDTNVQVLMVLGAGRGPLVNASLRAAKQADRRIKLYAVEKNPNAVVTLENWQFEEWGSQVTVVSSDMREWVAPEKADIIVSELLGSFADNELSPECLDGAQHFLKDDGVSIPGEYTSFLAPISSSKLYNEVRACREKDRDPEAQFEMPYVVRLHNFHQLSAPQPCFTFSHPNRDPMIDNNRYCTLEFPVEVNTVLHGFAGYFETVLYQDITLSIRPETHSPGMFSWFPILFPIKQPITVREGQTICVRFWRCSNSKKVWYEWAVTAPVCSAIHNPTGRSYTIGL

Molecular target: T1, HA-tagged ZEB2 (Zinc finger E-box-binding homeobox 2) (UniProt A0JP08)
T1 sequence: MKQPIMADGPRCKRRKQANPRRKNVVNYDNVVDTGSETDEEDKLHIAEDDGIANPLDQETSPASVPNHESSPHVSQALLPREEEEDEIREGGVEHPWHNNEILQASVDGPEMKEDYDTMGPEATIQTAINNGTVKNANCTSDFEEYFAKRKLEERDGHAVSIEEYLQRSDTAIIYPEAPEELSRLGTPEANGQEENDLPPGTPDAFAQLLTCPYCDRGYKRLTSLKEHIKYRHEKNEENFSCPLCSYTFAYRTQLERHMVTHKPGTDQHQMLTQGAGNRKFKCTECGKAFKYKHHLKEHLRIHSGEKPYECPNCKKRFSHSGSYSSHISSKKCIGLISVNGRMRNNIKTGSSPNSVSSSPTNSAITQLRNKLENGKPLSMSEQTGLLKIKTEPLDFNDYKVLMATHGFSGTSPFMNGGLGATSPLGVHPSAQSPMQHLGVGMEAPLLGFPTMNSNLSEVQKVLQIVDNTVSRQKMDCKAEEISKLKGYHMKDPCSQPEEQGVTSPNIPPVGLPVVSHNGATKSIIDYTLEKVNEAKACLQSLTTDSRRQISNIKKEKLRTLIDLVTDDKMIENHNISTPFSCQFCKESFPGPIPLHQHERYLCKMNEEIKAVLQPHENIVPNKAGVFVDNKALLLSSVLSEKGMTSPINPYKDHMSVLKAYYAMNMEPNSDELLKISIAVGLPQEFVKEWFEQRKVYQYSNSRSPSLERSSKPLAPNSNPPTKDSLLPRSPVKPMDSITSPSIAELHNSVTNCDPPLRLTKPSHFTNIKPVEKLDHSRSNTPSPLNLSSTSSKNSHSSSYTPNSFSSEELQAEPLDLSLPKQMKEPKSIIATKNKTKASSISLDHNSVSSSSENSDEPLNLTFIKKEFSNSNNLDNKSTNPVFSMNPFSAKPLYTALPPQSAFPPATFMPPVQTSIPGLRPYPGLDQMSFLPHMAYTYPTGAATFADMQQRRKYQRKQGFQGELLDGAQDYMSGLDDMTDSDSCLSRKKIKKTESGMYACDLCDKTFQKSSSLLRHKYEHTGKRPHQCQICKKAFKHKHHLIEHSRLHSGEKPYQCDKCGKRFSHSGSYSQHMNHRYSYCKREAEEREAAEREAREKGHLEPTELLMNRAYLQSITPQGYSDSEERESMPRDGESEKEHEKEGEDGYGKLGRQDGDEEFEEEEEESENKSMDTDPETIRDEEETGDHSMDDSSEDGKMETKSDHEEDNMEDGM
Test: affinity purification with mass spectrometry; lysate of about 2 x 10^8 SW480 cells stably overexpressing HA-tagged ZEB2 on anti-HA affinity beads, 4 °C, 2 h; washes with 0.42 M NaCl and 500 mM KCl buffers; SDS-PAGE and LC-MS/MS; HA alone as control

| binding | Substance |
| --- | --- |
| binds | Histone-binding protein RBBP4 (RbAp48), endogenous (from UniProt Q09028 1-425) |
| binds | Protein arginine N-methyltransferase 5 (PRMT5), endogenous (from UniProt O14744) (enzyme) |
